PubChem BioAssay AID1259405 | NCATS | 2018
Test: 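Knock-downs that lift recombinant protein yield in hamster ovary cells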 (primary screen). Cells: Chinese hamster CHO-K1 ovary cells with stable secreted eGFP expression. Reagent: single siRNA against mouse genes, 0.8 pmol siRNA per well (2 µl of 400 nM stock). Time to read-out: 3 days. Read-out: 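Per-well intracellular GFP measured by laser scanning cytometry, plus viability from ATP luminescence, each relative to plate median of non-targeting control wells, in %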. Reading the numbers: GFP, % of control: higher = more GFP per well, higher productivity. Rule for the call: 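Called active when intracellular GFP, relative to negative control, is at or above 120%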.
The deposit covers about 50,000 reagents; shown is a part drawn at random. In the full data, about 4,000 (8%) were called active. 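Mouse siRNA library applied to hamster cells; one well for each siRNA.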 Unmarked entries are inactive. Reagents against one gene are numbered here. Not all columns of the deposit are shown.

GFP, % of control, by gene and reagent
Or52b4: #1 65.3; #2 81.8; #3 71
Cpap: #1 96.6; #2 107; #3 60.5
Igbp1b: #1 67.8; #2 76.3; #3 116
Ano5: #1 68.7; #2 76.2; #3 78.9
Spesp1: #1 86.6; #2 126 (active); #3 147 (active)
Slc2a10: #1 59.3; #2 32.2; #3 31.5
Cdcp2: #1 98.8; #2 161 (active); #3 76.7
Fgfr2: #1 83.4
Or12d16-ps1: #1 76.6; #2 59.9; #3 85.8
Ube2e1: #1 86.8; #2 52.8; #3 88.6
Ms4a7: #1 62.4; #2 183 (active); #3 66.1
Slc35f6: #1 103; #2 49.2; #3 96.4
Taar6: #1 109; #2 80.8; #3 62.5
Ankrd24: #1 61.5; #2 44.8; #3 84.4
Rmnd5a: #1 99.8; #2 63.6; #3 124 (active)
Ugt1a6b: #1 65.7; #2 219 (active); #3 78.7
Pgk2: #1 55.8
Adam39: #1 9.96; #2 31.5; #3 82.4
Npas2: #1 83.2; #2 65.6; #3 61.4
Mmp13: #1 55.6; #2 64.4
Faf1: #1 94.8; #2 55; #3 73.8
